Counter-ions that a name gives are not always drawn. Some of the results follow. Most entries show no effect beyond the scatter of the controls.
Experiments:
Conditions in all cases: 5 µM; treatment: days 7-14 after plating, readout day 21
[1] = test system: hPSC-derived cortical neurons (WA09); assay: nucleus area z-score vs screen plate; higher = larger nuclei (more mature)
[2] = test system: hPSC-derived cortical neurons (WA09); assay: total neurite length per nucleus (MAP2) z-score; higher = more neurite growth
[3] = test system: hPSC-derived cortical neurons (WA09); assay: nucleus roundness z-score vs screen plate; higher = rounder nuclei (more mature)
[4] = test system: hPSC-derived cortical neurons (WA09); assay: KCl-induced FOS+/EGR-1+ double-positive nuclei fraction z-score (KCl minus unstimulated); higher = stronger activity-induced IEG response

| SMILES | nucleus area z-score [1] | total neurite length per nucleus (z-score) [2] | nucleus roundness z-score [3] | KCl-induced FOS+/EGR-1+ double-positive nuclei fraction z-score [4] |
| --- | --- | --- | --- | --- |
| Nc1ccc(S(=O)(=O)Nc2ncccn2)cc1 [Sulfadiazine] | 0.184 | -0.07 | -0.855 | 0.693 |
| O=C(O)c1cn(-c2ccc(F)cc2)c2cc(N3CCNCC3)c(F)cc2c1=O [Sarafloxacin HCl] | -0.55 | 0.816 | 1.11 | 0.833 |
| CN(C)CCCN1c2ccccc2CCc2ccccc21 [Imipramine HCl] | 0.209 | 0.25 | 1.11 | -0.0111 |
| CNC(=O)CN1CCC(Oc2cc3c(Nc4cccc(Cl)c4F)ncnc3cc2OC)CC1 [AZD8931 (Sapitinib)] | 1.65 | -1.06 | -0.846 | -0.764 |
| CC(C)c1ccc2c(c1)c(SC(C)(C)C)c(CC(C)(C)C(=O)O)n2Cc1ccc(Cl)cc1 | -0.326 | 0.32 | 0.893 | -0.161 |
| O=c1[nH]cnc2c1ncn2[C@H]1CC[C@@H](CO)O1 [Didanosine] | 0.572 | -0.719 | -0.0521 | -0.15 |
| C=C1c2cccc(O)c2C(=O)C2=C(O)[C@]3(O)C(=O)C(C(N)=O)=C(O)[C@@H](N(C)C)[C@@H]3[C@@H](O)[C@H]12 [Methacycline HCl] | 0.732 | -0.698 | -0.233 | 1.9 |
| CCN(CC)CCNC(=O)c1c(C)[nH]c(/C=C2\C(=O)Nc3ccc(F)cc32)c1C [Sunitinib Malate] | -5.54 | -2.25 | -2.57 | -0.05 |
| CCC(CC)(NC(=O)C(C)C)C(=O)N[C@@H](CCCN=C(N)N)C(=O)NC1(C(=O)NC(c2ccc(F)cc2)c2ccc(F)cc2)CCCC1 | -0.669 | -0.84 | -0.585 | 0.372 |
